Experimental findings from paper doi:10.1101/2020.08.12.247874 are described below.

Chains of the proteins cited; added tags and fusions are not shown. Lines headed by an entry give the natural chain unless they say otherwise; changes in a name come on top.
UniProt P84022: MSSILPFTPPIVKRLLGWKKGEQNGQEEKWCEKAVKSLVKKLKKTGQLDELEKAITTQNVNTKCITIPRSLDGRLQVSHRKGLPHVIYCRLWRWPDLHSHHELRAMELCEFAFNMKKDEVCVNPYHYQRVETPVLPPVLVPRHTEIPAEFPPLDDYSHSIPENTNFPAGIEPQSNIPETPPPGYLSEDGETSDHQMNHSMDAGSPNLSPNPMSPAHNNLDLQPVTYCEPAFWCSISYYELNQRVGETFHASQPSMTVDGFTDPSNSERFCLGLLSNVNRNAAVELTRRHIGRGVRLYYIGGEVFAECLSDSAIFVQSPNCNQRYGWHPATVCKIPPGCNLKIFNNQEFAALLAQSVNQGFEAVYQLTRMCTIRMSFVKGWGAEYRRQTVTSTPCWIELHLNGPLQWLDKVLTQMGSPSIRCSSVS
UniProt O95405: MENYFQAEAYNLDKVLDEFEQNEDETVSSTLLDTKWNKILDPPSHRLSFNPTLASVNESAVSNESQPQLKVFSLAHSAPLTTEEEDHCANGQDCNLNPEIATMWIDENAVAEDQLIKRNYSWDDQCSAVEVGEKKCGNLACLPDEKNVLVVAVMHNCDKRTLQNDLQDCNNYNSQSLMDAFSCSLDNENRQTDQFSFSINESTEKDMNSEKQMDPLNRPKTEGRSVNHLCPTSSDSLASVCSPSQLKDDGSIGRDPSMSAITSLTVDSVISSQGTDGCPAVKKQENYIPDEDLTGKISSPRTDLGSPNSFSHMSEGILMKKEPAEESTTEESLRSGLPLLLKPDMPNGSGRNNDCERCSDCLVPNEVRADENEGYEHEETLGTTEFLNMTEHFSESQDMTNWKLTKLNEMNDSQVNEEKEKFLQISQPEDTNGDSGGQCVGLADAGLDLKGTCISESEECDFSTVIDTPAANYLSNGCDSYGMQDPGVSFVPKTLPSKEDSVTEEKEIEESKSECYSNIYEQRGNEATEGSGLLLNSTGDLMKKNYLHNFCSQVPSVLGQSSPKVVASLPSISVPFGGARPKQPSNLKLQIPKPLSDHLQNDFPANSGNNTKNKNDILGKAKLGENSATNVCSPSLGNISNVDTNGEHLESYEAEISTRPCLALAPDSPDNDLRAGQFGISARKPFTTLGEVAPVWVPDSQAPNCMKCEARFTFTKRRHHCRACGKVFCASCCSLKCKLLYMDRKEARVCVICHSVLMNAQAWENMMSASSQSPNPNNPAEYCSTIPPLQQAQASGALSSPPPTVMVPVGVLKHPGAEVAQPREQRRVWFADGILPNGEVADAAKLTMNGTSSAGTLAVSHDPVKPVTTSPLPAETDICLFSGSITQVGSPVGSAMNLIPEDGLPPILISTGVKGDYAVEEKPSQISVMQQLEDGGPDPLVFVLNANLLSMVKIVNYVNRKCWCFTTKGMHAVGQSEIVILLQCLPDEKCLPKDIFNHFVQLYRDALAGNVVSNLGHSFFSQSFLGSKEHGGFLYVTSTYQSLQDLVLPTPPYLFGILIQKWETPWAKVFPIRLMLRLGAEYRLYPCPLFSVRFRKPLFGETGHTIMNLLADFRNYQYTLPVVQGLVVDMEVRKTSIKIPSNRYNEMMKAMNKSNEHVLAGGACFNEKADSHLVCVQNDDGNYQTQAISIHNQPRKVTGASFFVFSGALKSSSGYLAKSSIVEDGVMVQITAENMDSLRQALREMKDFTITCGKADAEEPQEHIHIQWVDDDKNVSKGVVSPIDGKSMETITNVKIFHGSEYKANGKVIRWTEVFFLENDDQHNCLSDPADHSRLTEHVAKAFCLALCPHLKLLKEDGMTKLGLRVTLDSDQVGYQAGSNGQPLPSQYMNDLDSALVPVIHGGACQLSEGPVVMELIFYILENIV

This experiment deals with SMAD3 (UniProt P84022). Description: qYY2H.

These are yes or no findings as the source states them, for the method shown. Binding calls can cover weak binding; strength is not graded here.

As to “SMAD binding domain of SARA (from UniProt O95405) (domain or fragment)”, the binding result is recorded as “binds”.
